Assay results: paper PMC5770545

Key:
[1] = target: T1, KREPA2 (Trypanosoma brucei (endogenous in BF and PF cells)); experiment: co-IP; BF cells: anti-KREPA2 (P1H3-D7) on anti-mouse IgG Dynabeads, cleared lysate of 1 x 10^8 cells in IPP150 (10 mM Tris-HCl pH 8.0, 150 mM NaCl, 0.1% Nonidet P-40) with 1% Triton X-100; Western blot with anti-V5 and antibodies to editosome proteins
T1 sequence: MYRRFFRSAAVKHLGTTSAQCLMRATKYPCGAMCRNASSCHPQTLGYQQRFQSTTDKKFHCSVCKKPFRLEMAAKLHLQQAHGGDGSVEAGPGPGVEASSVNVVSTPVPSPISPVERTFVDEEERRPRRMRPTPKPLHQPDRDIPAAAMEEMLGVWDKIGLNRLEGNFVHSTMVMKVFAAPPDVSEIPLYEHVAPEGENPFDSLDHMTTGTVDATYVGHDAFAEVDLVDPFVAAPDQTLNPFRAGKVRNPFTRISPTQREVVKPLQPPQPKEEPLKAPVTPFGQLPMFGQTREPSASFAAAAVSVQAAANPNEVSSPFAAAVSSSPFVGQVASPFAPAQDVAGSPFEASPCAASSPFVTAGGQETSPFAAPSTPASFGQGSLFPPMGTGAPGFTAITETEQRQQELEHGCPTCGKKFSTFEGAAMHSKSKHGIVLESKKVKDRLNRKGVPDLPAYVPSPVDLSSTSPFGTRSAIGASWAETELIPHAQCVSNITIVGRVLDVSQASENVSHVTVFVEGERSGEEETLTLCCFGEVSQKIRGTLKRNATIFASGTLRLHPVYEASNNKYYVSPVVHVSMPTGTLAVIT

[2] = target: T1, KREPA2 (Trypanosoma brucei (endogenous in BF and PF cells)); experiment: co-IP; PF CN cells: anti-KREPA2 (P1H3-D7) on anti-mouse IgG Dynabeads, cleared lysate of 1 x 10^8 cells in IPP150 (10 mM Tris-HCl pH 8.0, 150 mM NaCl, 0.1% Nonidet P-40) with 1% Triton X-100; Western blot with anti-V5 and antibodies to editosome proteins

Substance	binding [1]	binding [2]
N-terminal 3xV5-tagged KREPB9 G270V (Trypanosoma brucei)		binds
N-terminal 3xV5-tagged KREPB9, wild type (Trypanosoma brucei)	binds	binds
N-terminal 3xV5-tagged KREPB10 G238V (Trypanosoma brucei)		binds
N-terminal 3xV5-tagged KREPB10, wild type (Trypanosoma brucei)	binds	binds

More lines, now with the values ahead:

binding [1]	binding [2]	Substance
binds	binds	KREPA1
binds	binds	KREPA3

No constants are given. Whether binding was seen depends on the method and setting. In cells and extracts the contact can be indirect. A result given as binding can be weak or reduced; the word gives no strength.
